Some compounds share one wording; it may come from a single statement.
Test system: blood-brain and blood-CSF barriers
Experiment: [14C]-sucrose distribution (vascular space / barrier integrity marker) during in situ brain perfusion
Conditions: for effect on [14C]-sucrose distribution (barrier integrity): 20 mM L-homoarginine, 4 mM BCH, 500 μM α-methyl-D,L-tryptophan
Protocol: The in situ brain/choroid plexus perfusion method was performed as previously described and will only be briefly detailed here. […] At the end of the perfusion period a CSF sample was taken from the cisterna magna, the animal was decapitated, the brain removed and samples taken under a Leica S4E L2 stereomicroscope (Leica; Buckinghamshire, UK). […] The circumventricular organs (CVOs) including the choroid plexus, pituitary gland and pineal gland were also sampled. Brain samples were also taken for capillary depletion analysis.
It is specifically used in brain samples (including brain homogenate and brain supernatant) to measure the vascular space at all perfusion time points. At later time points, in particular, it may also represent the capillary endothelial cell volume and/ or diffusion across the brain capillary wall and into the brain interstitial fluid. In the pellet samples it will measure extracellular fluid and may also represent capillary endothelial cell volume. […] It may also represent any accumulation into the cells of the choroid plexus.

[1] = [3H]-ADMA experiments, brain regions, capillary depletion compartments and CVOs, 2 mM harmaline
[2] = [3H]-arginine experiments, brain regions, capillary depletion samples, CVO and CSF

Row | Structure (SMILES) | effect on [14C]-sucrose distribution (barrier integrity) [1] | effect on [14C]-sucrose distribution (barrier integrity) [2] | also measured
1 | CC(N)(Cc1c[nH]c2ccccc12)C(=O)O (racemic) [α-methyl-D,L-tryptophan, reference compound] | not significantly affected | not significantly affected | –
2 | NC1(C(=O)O)CC2CCC1C2 (stereo not drawn) [BCH, 2-amino-endo-bicyclo[2.2.1]heptane-2-carboxylic acid, reference compound] | not significantly affected | not significantly affected | –
3 | COc1ccc2c3c([nH]c2c1)C(C)=NCC3 [Harmaline, harmaline, reference compound] | not significantly affected | – | –
4 | NC(N)=NCCCC[C@H](N)C(=O)O [L-homoarginine, reference compound] | not significantly affected | not significantly affected | –
5 | CC(C)C[C@H](N)C(=O)O [L-leucine, reference compound] | – | – | effect on [14C]-sucrose space (5 mM L-leucine, frontal cortex, caudate nucleus, cerebellum and pellet): significantly higher
6 | N[C@@H](Cc1ccccc1)C(=O)O [L-phenylalanine, reference compound] | – | – | effect on vascular space ([14C]-sucrose) (200 μM L-phenylalanine, occipital cortex and hippocampus): significant reduction
7 | CN(C)C(N)=NCCC[C@H](N)C(=O)O.Cl.Cl [unlabelled ADMA, N^G,N^G-dimethylarginine dihydrochloride] | – | – | effect on [14C]-sucrose distribution (unlabelled ADMA 500 μM, occipital cortex, caudate nucleus, hippocampus, thalamus, pons and cerebellum): statistically increase; effect on [14C]-sucrose distribution (unlabelled ADMA at most concentrations, pellet): statistically reduced; [14C]-sucrose distribution vs control (unlabelled ADMA up to 100 μM, brain regions, homogenate, supernatant, CSF and CVOs (exception 3 μM in hippocampus and thalamus)): not statistically significantly different

Reference: article PMC12157126, “Saturation kinetics and specificity of transporters for L-arginine and asymmetric dimethylarginine (ADMA) at the blood-brain and blood-CSF barriers” (PLOS One, 2025)
